Test results from publication PMC7862700.
This is a selection; strong and weak results do not stand in their true shares. At the low end of the ranking the order means little.

Amino acid sequences for entries named in this document (tags omitted). A change or cut given only in a name is not applied to a line headed by its entry.
UniProt Q01892: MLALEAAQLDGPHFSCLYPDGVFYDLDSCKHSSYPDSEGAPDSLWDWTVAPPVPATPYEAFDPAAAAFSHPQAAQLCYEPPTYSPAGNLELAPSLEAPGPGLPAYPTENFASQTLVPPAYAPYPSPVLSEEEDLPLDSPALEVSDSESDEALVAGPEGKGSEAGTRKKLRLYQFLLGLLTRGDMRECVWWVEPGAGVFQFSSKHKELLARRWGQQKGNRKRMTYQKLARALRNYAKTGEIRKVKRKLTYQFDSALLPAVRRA
UniProt P41161: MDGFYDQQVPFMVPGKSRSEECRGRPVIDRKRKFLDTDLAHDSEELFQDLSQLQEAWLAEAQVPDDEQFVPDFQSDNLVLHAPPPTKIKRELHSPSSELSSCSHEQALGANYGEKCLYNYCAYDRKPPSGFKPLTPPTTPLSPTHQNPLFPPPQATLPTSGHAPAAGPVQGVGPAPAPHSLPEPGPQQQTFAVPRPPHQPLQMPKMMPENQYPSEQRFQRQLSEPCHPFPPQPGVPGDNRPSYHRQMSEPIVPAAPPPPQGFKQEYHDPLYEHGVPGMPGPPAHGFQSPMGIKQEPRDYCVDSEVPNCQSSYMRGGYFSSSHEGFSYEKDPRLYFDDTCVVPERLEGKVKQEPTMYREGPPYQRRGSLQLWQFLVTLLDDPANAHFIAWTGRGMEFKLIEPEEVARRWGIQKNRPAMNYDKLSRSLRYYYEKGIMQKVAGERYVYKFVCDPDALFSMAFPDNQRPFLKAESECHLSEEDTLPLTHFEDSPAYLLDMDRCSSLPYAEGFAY
UniProt Q99607: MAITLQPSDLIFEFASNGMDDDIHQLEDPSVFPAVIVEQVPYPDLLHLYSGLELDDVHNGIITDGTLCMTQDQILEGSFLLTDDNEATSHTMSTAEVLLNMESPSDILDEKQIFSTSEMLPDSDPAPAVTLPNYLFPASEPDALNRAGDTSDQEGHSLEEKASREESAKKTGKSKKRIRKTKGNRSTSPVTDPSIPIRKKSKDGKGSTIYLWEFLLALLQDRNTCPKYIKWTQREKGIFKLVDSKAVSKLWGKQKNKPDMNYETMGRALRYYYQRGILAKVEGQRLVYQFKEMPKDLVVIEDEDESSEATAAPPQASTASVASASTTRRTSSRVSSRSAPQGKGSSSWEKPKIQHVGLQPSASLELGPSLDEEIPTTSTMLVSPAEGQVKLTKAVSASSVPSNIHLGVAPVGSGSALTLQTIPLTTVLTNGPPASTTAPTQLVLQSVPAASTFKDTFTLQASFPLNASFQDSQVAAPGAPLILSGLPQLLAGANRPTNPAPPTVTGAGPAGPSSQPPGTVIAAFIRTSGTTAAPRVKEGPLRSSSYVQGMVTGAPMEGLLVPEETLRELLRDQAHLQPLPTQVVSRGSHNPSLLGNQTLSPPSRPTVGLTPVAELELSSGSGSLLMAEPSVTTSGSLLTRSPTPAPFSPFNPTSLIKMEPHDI

Tests used:
Assay in all cases: DAPPL (digital affinity profiling via proximity ligation, sequencing)
Details in all cases: 10 mM Tris-HCl pH 7.5, 50 mM NaCl, 1 mM DTT, 4% glycerol, room temperature, 30 min; GST-TFs on glutathione beads, 16-mer random dsDNA library, 0.1% …; high values mean tight binding; double strand, one strand shown; scale: fold enrichment (6-mer frequency, TF over GST control)
FLI1 = molecular target: T1, FLI1 (UniProt Q01543)
T1 sequence: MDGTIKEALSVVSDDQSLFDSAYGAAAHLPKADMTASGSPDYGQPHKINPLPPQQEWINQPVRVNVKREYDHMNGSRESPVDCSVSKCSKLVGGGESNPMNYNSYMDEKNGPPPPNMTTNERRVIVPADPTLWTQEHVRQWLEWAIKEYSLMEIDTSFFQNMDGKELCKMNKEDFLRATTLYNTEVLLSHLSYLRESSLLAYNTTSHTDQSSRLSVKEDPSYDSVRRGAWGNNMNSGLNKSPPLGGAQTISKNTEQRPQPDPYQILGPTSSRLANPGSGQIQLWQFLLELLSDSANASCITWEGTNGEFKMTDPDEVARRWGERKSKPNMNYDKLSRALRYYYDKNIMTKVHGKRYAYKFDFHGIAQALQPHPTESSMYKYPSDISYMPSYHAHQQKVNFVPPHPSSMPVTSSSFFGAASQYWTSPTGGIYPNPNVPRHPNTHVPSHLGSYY

SPIB = SPIB (UniProt Q01892)
ETV5 = ETV5 (UniProt P41161)
ELF4 = ELF4 (UniProt Q99607)
ETV2 = molecular target: T2, ETV2 (UniProt O00321)
T2 sequence: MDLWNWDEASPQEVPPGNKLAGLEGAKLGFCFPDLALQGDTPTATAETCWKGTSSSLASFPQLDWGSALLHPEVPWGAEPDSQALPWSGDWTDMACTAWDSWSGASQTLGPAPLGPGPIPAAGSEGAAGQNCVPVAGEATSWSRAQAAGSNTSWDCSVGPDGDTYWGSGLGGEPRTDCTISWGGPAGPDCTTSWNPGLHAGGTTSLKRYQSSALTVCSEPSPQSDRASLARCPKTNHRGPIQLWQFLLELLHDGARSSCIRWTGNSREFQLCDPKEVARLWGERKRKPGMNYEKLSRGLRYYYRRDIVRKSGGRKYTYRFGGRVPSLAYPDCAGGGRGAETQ

ETV3L = molecular target: T3, ETV3L (UniProt Q6ZN32)
T3 sequence: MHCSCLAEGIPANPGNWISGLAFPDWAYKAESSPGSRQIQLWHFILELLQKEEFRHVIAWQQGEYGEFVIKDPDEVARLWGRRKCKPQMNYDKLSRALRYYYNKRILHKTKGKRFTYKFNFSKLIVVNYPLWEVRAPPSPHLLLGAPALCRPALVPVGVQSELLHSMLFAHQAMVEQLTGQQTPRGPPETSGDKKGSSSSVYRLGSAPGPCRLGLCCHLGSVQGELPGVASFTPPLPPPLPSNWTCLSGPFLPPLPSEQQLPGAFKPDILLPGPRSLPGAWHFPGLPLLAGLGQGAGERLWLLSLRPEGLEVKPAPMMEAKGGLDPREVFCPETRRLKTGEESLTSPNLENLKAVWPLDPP

EHF = molecular target: T4, EHF (UniProt Q9NZC4)
T4 sequence: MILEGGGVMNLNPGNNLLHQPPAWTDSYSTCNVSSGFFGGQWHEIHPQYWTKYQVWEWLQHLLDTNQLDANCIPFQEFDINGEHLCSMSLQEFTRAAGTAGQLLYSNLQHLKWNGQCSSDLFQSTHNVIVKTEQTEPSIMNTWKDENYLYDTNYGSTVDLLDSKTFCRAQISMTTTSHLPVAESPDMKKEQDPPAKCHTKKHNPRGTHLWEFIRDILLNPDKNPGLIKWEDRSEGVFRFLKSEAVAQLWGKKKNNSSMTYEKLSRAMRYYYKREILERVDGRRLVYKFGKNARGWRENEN

Sequence	binding signal (FLI1)	binding signal (SPIB)	binding signal (ETV5)	binding signal (ELF4)	binding signal (ETV2)	binding signal (ETV3L)	binding signal (EHF)
CTAGAC	0.905	0.98	0.871	0.957	0.791	0.94	–
GCGTTG	1.1	0.918	0.949	0.932	1.01	–	0.864
CACGGC	0.98	0.997	0.978	0.954	0.797	–	0.912
CATCAA	0.937	0.956	0.994	1.05	0.931	–	0.995
GCGATA	0.956	1.02	0.974	0.978	1.11	–	0.994
CAGCAC	0.97	0.97	0.939	0.988	0.991	0.931	–
CCGAAC	1.26	1.2	1.27	1.26	1.36	–	–
GTAGAT	1	0.91	0.952	0.94	0.924	–	0.997
TCGCAT	0.979	–	0.95	0.994	0.977	–	0.975
AGGATT	0.975	0.916	0.956	0.94	0.96	–	0.939
TCGTTG	1.01	0.981	0.904	0.891	1.19	–	0.906
GTCATT	0.934	0.923	0.939	0.98	0.938	–	0.944
GGCGTT	0.982	–	0.918	0.878	1.13	–	0.898
CCACGT	0.973	–	0.973	0.977	0.974	–	0.93
GCGATC	0.951	0.93	0.925	0.992	0.965	–	0.973
GATCAT	0.954	0.963	0.932	0.992	0.992	–	0.979
GCGAAG	0.905	0.948	0.9	0.843	0.882	0.773	–
AGCATG	0.996	0.927	0.963	0.992	0.834	–	0.885
GCGTTA	0.927	0.914	0.892	0.915	0.97	–	0.872
AGTAGC	0.969	0.955	0.998	0.919	0.86	0.931	–
CACTAG	0.985	–	0.984	0.973	0.997	–	0.977
TGAAGC	0.963	0.942	1.01	0.995	0.934	0.953	–
ACGAAG	0.909	0.855	1	1.01	0.954	–	0.928
CACCTG	0.933	–	0.959	1.08	0.998	–	0.974
ATTAGT	0.971	0.917	0.974	1.06	1.12	–	1

Looked up above.
In binding signal (ELF4), TCGCAT reads 0.994
In binding signal (ELF4), CATCAA reads 1.05

Later entries.

Sequence	binding signal (FLI1)	binding signal (SPIB)	binding signal (ETV5)	binding signal (ELF4)	binding signal (ETV2)	binding signal (ETV3L)	binding signal (EHF)
AGTTTA	0.948	–	0.907	0.94	0.976	–	0.94
TGGTGA	0.931	0.873	0.905	0.941	0.881	0.973	–
TGATCA	1.04	0.98	1.02	1.1	1.1	–	–
TCCAGC	0.976	0.948	0.972	0.964	0.949	0.993	–
TTAGGC	0.915	0.939	0.988	0.986	0.918	–	0.928
ACGCGT	0.983	–	0.875	0.964	0.836	–	0.869
TAGACA	0.983	0.909	0.954	0.971	1.01	–	0.906
TCGAGT	0.942	0.909	0.914	0.913	0.908	–	0.895
TCTGAG	0.975	0.92	0.939	0.918	0.993	–	–
GGTTAC	0.988	0.995	0.951	0.987	0.944	–	0.97
ACTAGA	0.822	0.957	0.901	0.96	0.978	0.971	–
GTTGCC	0.866	0.937	0.884	0.938	0.819	–	0.875
GCCCTG	0.987	–	0.998	0.977	1	–	0.958
AGTAAC	1.02	–	1.03	0.974	–	0.978	–
GTGCCG	0.839	0.834	0.886	0.959	–	0.907	0.886
CGGACC	0.799	0.781	0.838	0.804	–	0.867	0.791
CGCAAT	0.885	0.897	0.961	0.903	–	0.91	0.964
ACTGGG	0.907	0.816	0.817	0.84	–	0.833	0.848
AATACG	1.11	–	1.27	1.29	–	1.23	–
ACGTCT	1.13	–	1.12	1.28	–	1.29	1.13
CGACAG	0.956	0.877	0.928	0.943	–	0.986	0.903
CAAGCC	0.931	0.946	0.98	0.985	–	0.942	0.948
TTTAGA	0.976	0.993	0.894	0.941	–	0.964	0.995
CGAAGT	0.958	0.941	0.906	0.954	–	0.883	0.924
